In the test the target is G9a (Homo sapiens, UniProt Q96KQ7). The test can be described thus: G9a AlphaLISA enzymatic activity assay. The settings on record: negative log of IC50 in molar, 0.15 nM G9a, 15 uM S-adenosyl-methionine, 100 nM biotinylated histone 3 peptide (1-21).

Sequences of proteins named here, by UniProt entry; tags and fusion partners are left off.
UniProt Q96KQ7, whole entry: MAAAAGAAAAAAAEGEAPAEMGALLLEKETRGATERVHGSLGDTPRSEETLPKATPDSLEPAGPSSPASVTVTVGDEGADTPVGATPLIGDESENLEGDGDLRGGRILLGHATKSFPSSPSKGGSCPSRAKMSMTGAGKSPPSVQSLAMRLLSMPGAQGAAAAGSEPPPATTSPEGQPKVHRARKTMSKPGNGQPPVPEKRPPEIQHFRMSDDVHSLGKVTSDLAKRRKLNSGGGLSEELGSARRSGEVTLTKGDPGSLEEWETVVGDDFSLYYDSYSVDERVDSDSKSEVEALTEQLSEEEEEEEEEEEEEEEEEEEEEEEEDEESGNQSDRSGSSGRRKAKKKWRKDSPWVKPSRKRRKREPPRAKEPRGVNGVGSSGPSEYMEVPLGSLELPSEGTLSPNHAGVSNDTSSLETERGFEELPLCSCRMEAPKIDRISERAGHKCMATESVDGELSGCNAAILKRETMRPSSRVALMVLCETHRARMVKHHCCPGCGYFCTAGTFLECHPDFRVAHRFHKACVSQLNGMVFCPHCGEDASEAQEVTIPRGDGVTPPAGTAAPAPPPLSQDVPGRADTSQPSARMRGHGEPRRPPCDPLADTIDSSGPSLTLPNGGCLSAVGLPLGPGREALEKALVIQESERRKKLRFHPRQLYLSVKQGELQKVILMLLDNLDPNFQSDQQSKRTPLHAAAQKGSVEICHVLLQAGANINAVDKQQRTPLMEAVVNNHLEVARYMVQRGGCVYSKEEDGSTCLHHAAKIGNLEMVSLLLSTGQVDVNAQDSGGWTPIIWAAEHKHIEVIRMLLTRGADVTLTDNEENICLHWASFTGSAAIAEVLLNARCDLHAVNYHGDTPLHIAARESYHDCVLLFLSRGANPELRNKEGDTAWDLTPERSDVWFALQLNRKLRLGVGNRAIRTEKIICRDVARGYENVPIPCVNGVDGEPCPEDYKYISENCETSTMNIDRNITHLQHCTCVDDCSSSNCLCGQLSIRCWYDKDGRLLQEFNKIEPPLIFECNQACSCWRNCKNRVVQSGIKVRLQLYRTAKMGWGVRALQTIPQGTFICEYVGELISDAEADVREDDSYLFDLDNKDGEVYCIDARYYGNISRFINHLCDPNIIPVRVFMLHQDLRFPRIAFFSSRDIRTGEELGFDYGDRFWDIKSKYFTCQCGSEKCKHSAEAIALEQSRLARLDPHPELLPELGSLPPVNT

For one compound, pIC50 results are on record in US11584734B2, “Tricyclic compounds as histone methyltransferase inhibitors” (GLOBAL BLOOD THERAPEUTICS, INC., priority 2017, dated 2023).

Structures were worked out from names or drawings and are uncertain.

In general, pIC50 refers to −log10 of the IC50, conventionally taken in molar units.

`COc1cc2c(NC3COCCOC3)c3c(nc2cc1OCCCN1CCCC1)CCC3`: the pIC50 is 8.04.
